Values from PubChem BioAssay AID493246 (Drosophila RNAi Screening Center, 2011).
In all, the deposit lists about 21,000 reagents; below is an unselected part of those with a known target gene and a result. Of all reagents, 429 (2%) are marked active. 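Values are raw and not normalised between plates; calls rest on per-plate z-scores that were not deposited.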 Entries without a mark were called inactive. The numbers tell different reagents against one gene apart. A plus sign joins genes that one reagent is predicted to hit. No sequences are given here. Not given: the amount of reagent, the time to read-out.

- Screen: 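Genome-wide search for dsRNAs that reduce cell number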 (primary screen)
- Cell system: Drosophila Kc and S2R+ cells
- Reagent: long dsRNA against Drosophila genes
- Measurement: 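Cell number per well after knock-down, printed as raw plate values; calls were based on per-plate z-scores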
- Scale: Kc cell number and S2R+ cell number: higher = more cells remaining
- Rule for the call: 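Counted as a hit if cell number falls by a z-score of at least 3 within its plate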

Knock-down of CG4956 (GeneID 43114) resulted in: Kc cell number, rep 1 = 1.51e6; Kc cell number, rep 2 = 1.52e6; S2R+ cell number, rep 1 = 1.01e6; S2R+ cell number, rep 2 = 1.08e6.
Knock-down of CG14932 (GeneID 34589) came out at: Kc cell number, rep 1 = 1.77e6; Kc cell number, rep 2 = 1.65e6; S2R+ cell number, rep 1 = 1.22e6; S2R+ cell number, rep 2 = 1.45e6.
For sr (GeneID 42162) #1, the entry reads Kc cell number, rep 1 = 1.36e6; Kc cell number, rep 2 = 1.37e6; S2R+ cell number, rep 1 = 1.06e6; S2R+ cell number, rep 2 = 1.15e6.
sr (GeneID 42162) #2 scored Kc cell number, rep 1 = 1.37e6; Kc cell number, rep 2 = 1.31e6; S2R+ cell number, rep 1 = 6.39e5; S2R+ cell number, rep 2 = 7.28e5.
For CG34433 (GeneID 5740702) the deposit lists Kc cell number, rep 1 = 1.46e6; Kc cell number, rep 2 = 1.45e6; S2R+ cell number, rep 1 = 1.01e6; S2R+ cell number, rep 2 = 1.06e6.
Against CG6204 (GeneID 42877), the values are Kc cell number, rep 1 = 1.51e6; Kc cell number, rep 2 = 1.68e6; S2R+ cell number, rep 1 = 1.14e6; S2R+ cell number, rep 2 = 1.15e6.
With knock-down of Etf-QO (GeneID 36031), the record shows Kc cell number, rep 1 = 1.44e6; Kc cell number, rep 2 = 1.48e6; S2R+ cell number, rep 1 = 1.30e6; S2R+ cell number, rep 2 = 1.33e6.
p130CAS + Dic61B scored Kc cell number, rep 1 = 1.33e6; Kc cell number, rep 2 = 1.45e6; S2R+ cell number, rep 1 = 1.05e6; S2R+ cell number, rep 2 = 9.86e5.
Lectin-galC1 (GeneID 35216) scored Kc cell number, rep 1 = 1.53e6; Kc cell number, rep 2 = 1.60e6; S2R+ cell number, rep 1 = 1.25e6; S2R+ cell number, rep 2 = 3.32e5.
With knock-down of CG32202 (GeneID 326199), the screen gave Kc cell number, rep 1 = 1.62e6; Kc cell number, rep 2 = 1.80e6; S2R+ cell number, rep 1 = 1.53e6; S2R+ cell number, rep 2 = 1.61e6.
CtsL2 (GeneID 36531) gave Kc cell number, rep 1 = 1.33e6; Kc cell number, rep 2 = 1.35e6; S2R+ cell number, rep 1 = 9.62e5; S2R+ cell number, rep 2 = 1.05e6.
bug (GeneID 36749) scored Kc cell number, rep 1 = 1.28e6; Kc cell number, rep 2 = 1.32e6; S2R+ cell number, rep 1 = 1.13e6; S2R+ cell number, rep 2 = 1.14e6.
Silencing of Stoml2 (GeneID 37807) gave: Kc cell number, rep 1 = 1.56e6; Kc cell number, rep 2 = 1.65e6; S2R+ cell number, rep 1 = 9.54e5; S2R+ cell number, rep 2 = 1.03e6.
Knock-down of byn (GeneID 39349) gave: Kc cell number, rep 1 = 1.40e6; Kc cell number, rep 2 = 1.59e6; S2R+ cell number, rep 1 = 1.23e6; S2R+ cell number, rep 2 = 1.34e6.
CG14332 (GeneID 42098) showed Kc cell number, rep 1 = 1.30e6; Kc cell number, rep 2 = 1.36e6; S2R+ cell number, rep 1 = 1.10e6; S2R+ cell number, rep 2 = 1.24e6.
ATPsynE (GeneID 41745) scored Kc cell number, rep 1 = 1.43e6; Kc cell number, rep 2 = 1.51e6; S2R+ cell number, rep 1 = 1.05e6; S2R+ cell number, rep 2 = 1.08e6.
With knock-down of CG9411 (GeneID 32392) the results were Kc cell number, rep 1 = 5.73e5; S2R+ cell number, rep 1 = 7.77e5.
For Pka-R2 (GeneID 36041), the values are Kc cell number, rep 1 = 1.86e6; Kc cell number, rep 2 = 1.81e6; S2R+ cell number, rep 1 = 1.33e6; S2R+ cell number, rep 2 = 1.63e6.
With knock-down of mthl4 (GeneID 36960), the screen gave Kc cell number, rep 1 = 1.66e6; Kc cell number, rep 2 = 1.66e6; S2R+ cell number, rep 1 = 1.14e6; S2R+ cell number, rep 2 = 1.31e6.
Against CG16879 (retired record) (GeneID 34827) the deposit lists Kc cell number, rep 1 = 1.54e6; Kc cell number, rep 2 = 1.40e6; S2R+ cell number, rep 1 = 1.09e6; S2R+ cell number, rep 2 = 1.11e6.
Knock-down of CG10341 (GeneID 35125) came out at: Kc cell number, rep 1 = 1.28e6; Kc cell number, rep 2 = 1.33e6; S2R+ cell number, rep 1 = 1.25e6; S2R+ cell number, rep 2 = 1.31e6.
PolI (GeneID 40965) gave Kc cell number, rep 1 = 1.54e6; Kc cell number, rep 2 = 1.61e6; S2R+ cell number, rep 1 = 1.31e6; S2R+ cell number, rep 2 = 1.39e6.
SmF (GeneID 36314) gave Kc cell number, rep 1 = 1.20e6; Kc cell number, rep 2 = 1.38e6; S2R+ cell number, rep 1 = 7.94e5; S2R+ cell number, rep 2 = 8.96e5.
Against pck (GeneID 31101), the values are Kc cell number, rep 1 = 5.11e5; S2R+ cell number, rep 1 = 8.13e5.
Silencing of ArfGAP3 (GeneID 40487) resulted in: Kc cell number, rep 1 = 1.59e6; Kc cell number, rep 2 = 1.58e6; S2R+ cell number, rep 1 = 1.19e6; S2R+ cell number, rep 2 = 1.21e6.
Silencing of Lrch (GeneID 35041) resulted in: Kc cell number, rep 1 = 1.29e6; Kc cell number, rep 2 = 1.45e6; S2R+ cell number, rep 1 = 1.27e6; S2R+ cell number, rep 2 = 1.18e6.
With knock-down of gudu (GeneID 34014) the results were Kc cell number, rep 1 = 1.78e6; Kc cell number, rep 2 = 1.65e6; S2R+ cell number, rep 1 = 1.22e6; S2R+ cell number, rep 2 = 1.30e6.
